Experimental data published in patent US20040086946A1, “Methods of isolation of active compounds and activated targets” (priority 2002, published 2004).
Results are given in words; binding and its absence hold for the method and conditions named. Some entries that bind do so weakly or less than the wild type.

Sequences of proteins named here, by UniProt entry; tags and fusion partners are left off. Residues count along the entry.
UniProt Q86YW7, residues 25-130: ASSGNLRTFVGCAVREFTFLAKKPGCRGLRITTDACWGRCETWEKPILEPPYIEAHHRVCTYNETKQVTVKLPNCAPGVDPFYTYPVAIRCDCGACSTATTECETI
UniProt P01215, residues 25-116: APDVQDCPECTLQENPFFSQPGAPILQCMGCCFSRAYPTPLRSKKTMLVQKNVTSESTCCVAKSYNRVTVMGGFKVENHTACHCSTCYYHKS

How the values were obtained:
Assay in all cases: extracellular 2-hybrid screen: HFRW-subunit and subunit-MC4R fusions co-expressed in HEK293 CRE-luciferase cells
[1] = biological target: hCG glycoprotein hormone subunit (UniProt P0DN86)
[2] = biological target: alpha2 glycoprotein hormone subunit (UniProt Q96T91)
[3] = biological target: OGH glycoprotein hormone subunit (UniProt Q86YW7)

binding [1] | binding [2] | binding [3] | Substance
binds |  |  | alpha1 glycoprotein hormone subunit (from UniProt P01215 25-116) (ligand)
binds | binds | binds | alpha2 glycoprotein hormone subunit (from UniProt Q96T91 24-129) (ligand)
